Results are given in words; binding and its absence hold for the method and conditions named. Some binding calls cover weakened binding; strength is not graded here.
Molecular target: CHK2(73-538)S73C (UniProt O96017)
Assay: SEC; gel-filtration profiles of the purified unligated and ligated CHK2 proteins; both purified

Amino acid sequences for entries named in this document (tags omitted). A change or cut given only in a name is not applied to a line headed by its entry. Chains listed by the source or under a name are the forms on record and can include a tag or linker.
CHK2(73-538)S73C (O96017, form named): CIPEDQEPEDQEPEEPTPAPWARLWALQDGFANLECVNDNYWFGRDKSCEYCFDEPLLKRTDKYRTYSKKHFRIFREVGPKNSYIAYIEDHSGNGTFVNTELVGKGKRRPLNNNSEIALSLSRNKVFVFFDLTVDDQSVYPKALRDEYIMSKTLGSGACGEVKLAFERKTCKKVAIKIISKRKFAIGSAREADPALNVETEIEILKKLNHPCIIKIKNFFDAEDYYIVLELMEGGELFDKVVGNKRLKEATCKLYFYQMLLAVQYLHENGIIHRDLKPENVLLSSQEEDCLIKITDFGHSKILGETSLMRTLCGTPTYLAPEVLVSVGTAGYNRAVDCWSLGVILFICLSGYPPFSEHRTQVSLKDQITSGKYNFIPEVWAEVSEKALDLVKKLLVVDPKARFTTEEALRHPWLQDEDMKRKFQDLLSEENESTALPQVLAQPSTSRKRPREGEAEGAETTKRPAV

binding: binds weakly
Substance: CHK2(73-538)S73C (from UniProt O96017 73-538) (domain or fragment)
